Literature values as cited in paper PMC10049495, “Antitumor Activity of PEGylated and TEGylated Phenothiazine Derivatives: Structure–Activity Relationship” (International Journal of Molecular Sciences, 2023).
Where two headings read alike, the source gives them in different places.

Experiments:
U87-MG = conditions: cited from earlier work
HepG2 = HepG2 (merged cell assumed); cited from earlier work

| Compound | IC50 (U87-MG; cell line not clear from layout (U87-MG assumed)) [µM] | IC50 (U87-MG; U87-MG) [µM] | IC50 (HepG2) [µM] |
| --- | --- | --- | --- |
| CN1CCN(CCCN2c3ccccc3Sc3ccc(Cl)cc32)CC1 [Prochlorperazine] | 0.97 | – | – |
| CSc1ccc2c(c1)N(CCC1CCCCN1C)c1ccccc1S2 (stereo not drawn) [Thioridazine] | – | 12.4 | 45.5 |
